These results are taken from PMC5996148.

Assay in all cases: protein microarray (ProtoArray v5.0), streptavidin-Alexa Fluor 647
Common to all, as to settings: 3'-biotin; 20 mM Tris (pH 7.5), 5 mM MgCl2, 100 mM KCl, 0.1% Tween-20, A/T-rich and random oligonucleotide blockers; temperature not stated; high values mean tight binding

One test addresses T1, TP53I3 (UniProt Q53FA7).
T1 sequence: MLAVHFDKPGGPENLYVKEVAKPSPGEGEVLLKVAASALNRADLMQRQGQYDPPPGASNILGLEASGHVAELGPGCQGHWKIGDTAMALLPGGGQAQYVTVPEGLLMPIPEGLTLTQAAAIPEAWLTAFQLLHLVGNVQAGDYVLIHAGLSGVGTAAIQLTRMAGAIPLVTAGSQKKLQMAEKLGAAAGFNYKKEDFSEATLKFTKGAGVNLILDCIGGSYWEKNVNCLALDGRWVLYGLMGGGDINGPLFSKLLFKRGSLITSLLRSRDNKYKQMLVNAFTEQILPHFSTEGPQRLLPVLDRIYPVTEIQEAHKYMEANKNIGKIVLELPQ

The subject of another test is TPH1 (human).
For the next test, the system named is TPM3 (human).
The test system of another test is TPM4 (human).
A further test has as its system TPP1 (human).
The next test deals with TPT1 (human).
In a further test the test system is TRA16 (human).
The next test deals with TRAPPC3 (human).
The test system of another test is TRBV5-4 (human).
Another test has as its system TRIB2 (human).

Where “and” joins values, the source holds several entries; their conditions need not be identical. Equal values may be shown once. Some of the results follow. For some of these results: Construct or isoform of the protein are uncertain.

Regarding “GGTGACAGGGGTATGGGGAGGGG [G4-2 biotinylated (Ct1)]”, the binding signal with TP53I3 was 3.64 z-score; in the test with TPH1 (human), -0.391 z-score; with TPM3 (human), -0.39 z-score and -0.395 z-score; in the test with TPM4 (human) it was -0.387 z-score; in the test with TPP1 (human) it was -0.387 z-score; in the test with TPT1 (human), -0.389 z-score. Further, the binding signal in the test with TRA16 (human) was -0.399 z-score; in the test on TRAPPC3 (human) it was -0.396 z-score; in the test on TRBV5-4 (human) it was -0.37 z-score; with TRIB2 (human) it was -0.386 z-score.
